# The other results are listed elsewhere or left out. The data scatter; read single values as rough.
# The chains behind the UniProt entries cited, without tags or fusion partners. Where a name states a change or a piece, a line headed by the entry shows the natural chain unless it says otherwise. Residues count along the entry.
# UniProt Q92576, 328-355: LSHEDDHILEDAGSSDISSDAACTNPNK
# UniProt O95602, whole entry, looked up: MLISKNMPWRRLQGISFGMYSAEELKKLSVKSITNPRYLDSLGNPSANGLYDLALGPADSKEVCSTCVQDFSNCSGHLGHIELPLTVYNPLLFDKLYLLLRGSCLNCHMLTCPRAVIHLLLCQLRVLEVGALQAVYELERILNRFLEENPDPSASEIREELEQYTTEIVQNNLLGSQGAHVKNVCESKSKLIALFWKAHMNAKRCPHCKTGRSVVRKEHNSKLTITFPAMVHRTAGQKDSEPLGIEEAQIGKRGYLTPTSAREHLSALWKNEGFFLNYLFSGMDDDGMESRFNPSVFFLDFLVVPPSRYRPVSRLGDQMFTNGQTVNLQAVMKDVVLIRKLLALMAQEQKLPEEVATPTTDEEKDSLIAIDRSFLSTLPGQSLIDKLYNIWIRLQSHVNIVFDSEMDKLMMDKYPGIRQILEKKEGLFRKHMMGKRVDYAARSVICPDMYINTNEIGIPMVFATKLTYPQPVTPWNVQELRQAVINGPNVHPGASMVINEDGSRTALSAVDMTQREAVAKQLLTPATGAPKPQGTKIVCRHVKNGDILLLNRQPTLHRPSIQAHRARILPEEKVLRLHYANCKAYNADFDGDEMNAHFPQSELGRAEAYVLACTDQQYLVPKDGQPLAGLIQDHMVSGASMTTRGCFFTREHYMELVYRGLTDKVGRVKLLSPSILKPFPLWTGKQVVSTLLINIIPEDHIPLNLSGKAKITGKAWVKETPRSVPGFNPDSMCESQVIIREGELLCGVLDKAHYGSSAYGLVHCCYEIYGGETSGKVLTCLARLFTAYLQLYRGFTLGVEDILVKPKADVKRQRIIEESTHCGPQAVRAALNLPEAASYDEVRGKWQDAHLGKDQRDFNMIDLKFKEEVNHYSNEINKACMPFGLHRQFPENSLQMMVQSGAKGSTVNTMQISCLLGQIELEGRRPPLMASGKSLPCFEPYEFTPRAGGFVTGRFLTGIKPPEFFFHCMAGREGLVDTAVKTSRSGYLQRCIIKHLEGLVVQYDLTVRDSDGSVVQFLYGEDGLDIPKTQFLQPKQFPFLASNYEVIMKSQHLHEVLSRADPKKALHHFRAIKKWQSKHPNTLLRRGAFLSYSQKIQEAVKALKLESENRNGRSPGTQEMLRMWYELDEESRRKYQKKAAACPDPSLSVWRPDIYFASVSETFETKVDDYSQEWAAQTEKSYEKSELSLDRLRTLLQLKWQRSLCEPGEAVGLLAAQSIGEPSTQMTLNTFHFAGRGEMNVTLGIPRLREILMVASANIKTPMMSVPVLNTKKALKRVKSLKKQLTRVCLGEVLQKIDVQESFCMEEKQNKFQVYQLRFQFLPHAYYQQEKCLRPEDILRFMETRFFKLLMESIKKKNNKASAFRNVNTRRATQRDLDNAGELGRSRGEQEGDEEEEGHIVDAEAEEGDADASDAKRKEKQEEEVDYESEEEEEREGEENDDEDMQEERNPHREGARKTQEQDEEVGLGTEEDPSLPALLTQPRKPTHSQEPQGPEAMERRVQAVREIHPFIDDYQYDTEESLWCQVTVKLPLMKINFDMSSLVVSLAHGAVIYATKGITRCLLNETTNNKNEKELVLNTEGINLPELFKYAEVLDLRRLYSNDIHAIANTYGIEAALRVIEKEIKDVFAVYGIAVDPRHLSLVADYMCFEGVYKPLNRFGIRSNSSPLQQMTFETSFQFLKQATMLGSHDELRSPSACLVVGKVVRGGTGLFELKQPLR
# UniProt O94903: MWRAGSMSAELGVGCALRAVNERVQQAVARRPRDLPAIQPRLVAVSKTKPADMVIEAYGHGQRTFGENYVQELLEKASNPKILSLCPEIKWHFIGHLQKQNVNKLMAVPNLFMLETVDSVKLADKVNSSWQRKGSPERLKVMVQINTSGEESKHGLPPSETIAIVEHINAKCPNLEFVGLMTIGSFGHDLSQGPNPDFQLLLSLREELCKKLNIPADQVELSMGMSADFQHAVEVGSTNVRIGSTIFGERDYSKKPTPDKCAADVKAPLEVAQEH
# UniProt Q9H9Y6, whole entry, looked up: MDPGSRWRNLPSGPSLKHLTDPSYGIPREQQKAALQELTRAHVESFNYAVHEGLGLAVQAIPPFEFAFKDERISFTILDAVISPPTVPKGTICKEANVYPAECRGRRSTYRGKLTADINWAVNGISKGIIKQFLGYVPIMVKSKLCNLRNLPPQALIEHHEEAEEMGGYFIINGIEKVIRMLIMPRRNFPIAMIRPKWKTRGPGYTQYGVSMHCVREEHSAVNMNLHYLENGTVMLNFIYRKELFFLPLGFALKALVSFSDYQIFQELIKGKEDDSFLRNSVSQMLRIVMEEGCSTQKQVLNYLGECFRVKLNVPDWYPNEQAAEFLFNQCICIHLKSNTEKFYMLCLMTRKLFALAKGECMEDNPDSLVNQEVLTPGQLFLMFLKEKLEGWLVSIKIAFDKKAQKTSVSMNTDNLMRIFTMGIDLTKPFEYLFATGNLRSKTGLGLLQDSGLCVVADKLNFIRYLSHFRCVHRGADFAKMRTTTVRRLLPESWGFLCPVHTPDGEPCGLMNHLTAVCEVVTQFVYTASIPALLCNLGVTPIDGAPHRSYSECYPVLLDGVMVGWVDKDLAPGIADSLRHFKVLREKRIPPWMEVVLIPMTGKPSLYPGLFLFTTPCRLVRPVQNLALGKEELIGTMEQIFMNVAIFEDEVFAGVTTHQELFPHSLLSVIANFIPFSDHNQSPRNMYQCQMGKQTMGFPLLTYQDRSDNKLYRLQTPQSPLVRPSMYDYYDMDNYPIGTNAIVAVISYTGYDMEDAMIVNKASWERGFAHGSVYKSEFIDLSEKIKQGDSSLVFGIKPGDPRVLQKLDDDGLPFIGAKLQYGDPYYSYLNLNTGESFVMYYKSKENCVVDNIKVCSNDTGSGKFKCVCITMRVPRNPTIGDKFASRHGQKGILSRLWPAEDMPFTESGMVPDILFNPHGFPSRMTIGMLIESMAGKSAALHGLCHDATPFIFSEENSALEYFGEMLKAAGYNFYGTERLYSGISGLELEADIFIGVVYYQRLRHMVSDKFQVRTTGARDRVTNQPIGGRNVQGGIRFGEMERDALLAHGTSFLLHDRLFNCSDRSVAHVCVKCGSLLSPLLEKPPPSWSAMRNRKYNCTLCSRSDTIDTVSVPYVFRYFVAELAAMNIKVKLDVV
# UniProt Q16513: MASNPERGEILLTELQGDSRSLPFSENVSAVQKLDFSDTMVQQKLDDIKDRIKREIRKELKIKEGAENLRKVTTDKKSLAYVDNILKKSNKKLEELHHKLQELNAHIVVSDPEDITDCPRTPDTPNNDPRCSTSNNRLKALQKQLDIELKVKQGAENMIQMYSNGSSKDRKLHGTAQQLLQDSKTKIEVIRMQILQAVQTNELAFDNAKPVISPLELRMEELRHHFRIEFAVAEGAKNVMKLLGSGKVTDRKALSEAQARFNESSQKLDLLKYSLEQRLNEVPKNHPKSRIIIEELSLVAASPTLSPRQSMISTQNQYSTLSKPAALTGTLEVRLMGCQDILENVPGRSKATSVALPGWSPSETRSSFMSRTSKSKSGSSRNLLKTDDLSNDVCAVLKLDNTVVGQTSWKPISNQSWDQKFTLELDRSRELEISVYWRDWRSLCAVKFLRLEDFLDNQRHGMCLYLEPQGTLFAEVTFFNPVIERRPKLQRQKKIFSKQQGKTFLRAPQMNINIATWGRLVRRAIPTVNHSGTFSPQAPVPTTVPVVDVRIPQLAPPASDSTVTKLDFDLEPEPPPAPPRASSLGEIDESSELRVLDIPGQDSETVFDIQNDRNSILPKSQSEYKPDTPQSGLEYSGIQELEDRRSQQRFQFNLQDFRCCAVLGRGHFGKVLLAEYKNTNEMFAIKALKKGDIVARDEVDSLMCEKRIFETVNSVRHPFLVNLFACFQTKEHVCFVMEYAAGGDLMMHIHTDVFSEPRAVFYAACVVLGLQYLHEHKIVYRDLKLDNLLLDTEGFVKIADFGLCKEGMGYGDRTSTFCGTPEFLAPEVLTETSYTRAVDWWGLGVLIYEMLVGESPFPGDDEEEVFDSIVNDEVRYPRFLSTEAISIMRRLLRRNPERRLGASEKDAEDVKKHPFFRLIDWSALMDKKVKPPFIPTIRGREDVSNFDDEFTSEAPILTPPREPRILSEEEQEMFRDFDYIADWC
# UniProt Q8IWS0: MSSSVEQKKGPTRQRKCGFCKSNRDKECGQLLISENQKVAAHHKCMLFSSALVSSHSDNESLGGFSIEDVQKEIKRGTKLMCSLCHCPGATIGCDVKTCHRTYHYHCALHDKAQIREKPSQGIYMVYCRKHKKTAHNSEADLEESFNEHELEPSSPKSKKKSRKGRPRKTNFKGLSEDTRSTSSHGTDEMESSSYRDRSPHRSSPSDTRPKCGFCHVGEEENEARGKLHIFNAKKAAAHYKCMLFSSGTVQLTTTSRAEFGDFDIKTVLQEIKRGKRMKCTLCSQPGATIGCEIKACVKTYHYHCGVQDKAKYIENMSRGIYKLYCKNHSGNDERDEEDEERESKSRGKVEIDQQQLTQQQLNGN
# UniProt Q14442: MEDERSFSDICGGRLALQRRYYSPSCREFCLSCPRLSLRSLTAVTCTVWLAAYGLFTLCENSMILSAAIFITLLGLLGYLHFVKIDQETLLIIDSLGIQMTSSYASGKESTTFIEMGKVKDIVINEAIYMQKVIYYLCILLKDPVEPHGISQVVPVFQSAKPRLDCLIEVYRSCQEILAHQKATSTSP
# UniProt Q14651: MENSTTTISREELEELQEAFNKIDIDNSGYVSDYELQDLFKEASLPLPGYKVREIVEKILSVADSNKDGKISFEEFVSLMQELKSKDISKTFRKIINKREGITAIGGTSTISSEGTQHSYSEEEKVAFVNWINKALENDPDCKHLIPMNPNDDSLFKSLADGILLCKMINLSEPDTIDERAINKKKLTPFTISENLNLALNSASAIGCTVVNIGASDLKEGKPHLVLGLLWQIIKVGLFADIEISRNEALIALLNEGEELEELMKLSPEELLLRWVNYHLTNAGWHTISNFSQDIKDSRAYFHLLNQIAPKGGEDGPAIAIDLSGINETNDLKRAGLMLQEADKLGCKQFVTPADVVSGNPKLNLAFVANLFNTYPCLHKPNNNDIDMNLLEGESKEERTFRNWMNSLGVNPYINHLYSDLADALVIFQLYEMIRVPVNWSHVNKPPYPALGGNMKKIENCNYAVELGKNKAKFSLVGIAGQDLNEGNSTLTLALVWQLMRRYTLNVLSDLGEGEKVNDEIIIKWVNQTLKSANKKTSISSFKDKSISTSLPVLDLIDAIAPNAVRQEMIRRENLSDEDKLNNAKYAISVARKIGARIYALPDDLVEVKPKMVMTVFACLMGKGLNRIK
# UniProt O75925: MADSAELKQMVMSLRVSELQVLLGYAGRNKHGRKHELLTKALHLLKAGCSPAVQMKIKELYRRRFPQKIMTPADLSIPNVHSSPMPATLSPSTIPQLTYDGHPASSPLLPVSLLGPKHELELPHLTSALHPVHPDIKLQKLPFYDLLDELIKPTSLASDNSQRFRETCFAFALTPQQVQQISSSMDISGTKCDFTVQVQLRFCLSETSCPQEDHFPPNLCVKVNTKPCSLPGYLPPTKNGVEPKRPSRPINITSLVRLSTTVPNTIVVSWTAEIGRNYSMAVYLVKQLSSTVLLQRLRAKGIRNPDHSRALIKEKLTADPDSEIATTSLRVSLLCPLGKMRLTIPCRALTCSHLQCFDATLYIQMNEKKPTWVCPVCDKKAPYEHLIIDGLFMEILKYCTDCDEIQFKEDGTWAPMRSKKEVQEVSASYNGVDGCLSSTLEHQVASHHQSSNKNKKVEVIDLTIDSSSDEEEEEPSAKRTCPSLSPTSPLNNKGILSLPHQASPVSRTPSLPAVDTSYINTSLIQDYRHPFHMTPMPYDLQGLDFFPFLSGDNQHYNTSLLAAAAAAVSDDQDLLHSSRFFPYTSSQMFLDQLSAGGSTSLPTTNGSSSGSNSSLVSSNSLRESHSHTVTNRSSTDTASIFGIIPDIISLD
# UniProt Q15126: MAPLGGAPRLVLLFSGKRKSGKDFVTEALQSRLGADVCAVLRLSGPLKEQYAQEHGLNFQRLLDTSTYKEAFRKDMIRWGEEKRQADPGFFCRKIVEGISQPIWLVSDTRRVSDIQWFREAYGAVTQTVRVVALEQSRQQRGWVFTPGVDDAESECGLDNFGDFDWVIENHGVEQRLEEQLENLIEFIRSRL
# UniProt P37287, 333-353: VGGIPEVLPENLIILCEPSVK
# UniProt Q16512, 569-606: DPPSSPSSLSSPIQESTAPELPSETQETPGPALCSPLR
# UniProt P78337, 66-86: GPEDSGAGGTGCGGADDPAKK
# Compound: ClCC(=O)N[C@@H]1CCCc2ccccc12
# Assay: log2 mean competition ratio of IA-DTB cysteine labelling (DMSO/compound) (log2 ratio); higher = stronger cysteine engagement by compound
# Conditions: 50 µM; treatment time: 4 h; cell line lysate: HEK293T
# Description: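 IA-DTB competitive cysteine chemoproteomics in HEK293T RIPA lysate. Lysates were treated with compound 29 or 30 at 50 or 200 µM for 4 h, then IA-DTB (500 µM, 1 h), trypsin-digested, NeutrAvidin-enriched and analysed by diaPASEF. Competition ratio = intensity DMSO / intensity compound (n=4 treated, n=64 DMSO); binding: mean log2 CR ≥ 1 and p ≤ 0.05 plus QC filters. Target is the cysteine site.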
row,Target,log2 mean competition ratio
1,PHF3 C350 (UniProt Q92576),-0.259
2,POLR1A C746 (UniProt O95602),-0.392
3,POLR1F C47,-0.515
4,PLPBP C86 (UniProt O94903),-0.0422
5,POLE C2158 (UniProt Q07864),0.0312
6,PIK3C2A C13 (UniProt O00443),-0.0192
7,PLCG1 C881 (UniProt P19174),-0.0852
8,PHGDH C295,-0.361
9,POLR1B C847 (UniProt Q9H9Y6),0.0636
10,PKN2 C704 (UniProt Q16513),-0.42
11,PHF6 C28 (UniProt Q8IWS0),-0.0505
12,PNPLA6 C418 (UniProt Q8IY17),0.414
13,PLAA C605 (UniProt Q9Y263),0.3
14,PI4KA C95 (UniProt P42356),0.508
15,PHKA1 C551 (UniProt P46020),0.0304
16,PIGH C174 (UniProt Q14442),-0.0291
17,POGLUT3 C156 (UniProt Q7Z4H8),0.229
18,PNMA3 C130,0.284
19,PLS1 C166 (UniProt Q14651),0.174

row,Target,log2 mean competition ratio
1,PLEKHO1 C269,-0.342
2,PIKFYVE C1663 (UniProt Q9Y2I7),-0.116
3,PIAS1 C228 (UniProt O75925),0.00703
4,PLOD1 C369 (UniProt Q02809),-0.194
5,PMVK C92 (UniProt Q15126),-0.275
6,PLCE1 C375,-0.072
7,POLQ C2295 (UniProt O75417),0.488
8,PM20D2 C30 (UniProt Q8IYS1),-0.113
9,POLR1A C1304 (UniProt O95602),-0.0622
10,PKM C358,-0.372
11,POLR1A C733 (UniProt O95602),-0.34
12,POLD1 C428 (UniProt P28340),0.348
13,PHKB C76 (UniProt Q93100),-0.431
14,POLR1A C937 (UniProt O95602),0.213
15,PIGA C348 (UniProt P37287),0.739
16,PKN1 C602 (UniProt Q16512),-0.295
17,PIK3R2 C50 (UniProt O00459),0.0778
18,PITX1 C77 (UniProt P78337),-0.159

# Same assay, conditions: 200 µM; treatment time: 4 h; cell line lysate: HEK293T
row,Target,log2 mean competition ratio
1,PHF3 C350 (UniProt Q92576),-0.129
2,POLR1A C746 (UniProt O95602),-0.19
3,POLR1F C47,0.282
4,PLPBP C86 (UniProt O94903),-0.329
5,POLE C2158 (UniProt Q07864),0.00551
6,PIK3C2A C13 (UniProt O00443),-0.187
7,PLCG1 C881 (UniProt P19174),0.163
8,PHGDH C295,0.0796
9,POLR1B C847 (UniProt Q9H9Y6),0.318
10,PKN2 C704 (UniProt Q16513),-0.141
11,PHF6 C28 (UniProt Q8IWS0),0.108
12,PNPLA6 C418 (UniProt Q8IY17),0.0565
13,PLAA C605 (UniProt Q9Y263),0.1
14,PI4KA C95 (UniProt P42356),0.364
15,PHKA1 C551 (UniProt P46020),-0.221
16,PIGH C174 (UniProt Q14442),0.056
17,POGLUT3 C156 (UniProt Q7Z4H8),0.0555
18,PNMA3 C130,0.461
19,PLS1 C166 (UniProt Q14651),-0.16

row,Target,log2 mean competition ratio
1,PLEKHO1 C269,0.316
2,PIKFYVE C1663 (UniProt Q9Y2I7),0.0356
3,PIAS1 C228 (UniProt O75925),-0.0041
4,PLOD1 C369 (UniProt Q02809),0.339
5,PMVK C92 (UniProt Q15126),0.104
6,PLCE1 C375,-0.191
7,POLQ C2295 (UniProt O75417),0.391
8,PM20D2 C30 (UniProt Q8IYS1),0.177
9,POLR1A C1304 (UniProt O95602),-0.268
10,PKM C358,-0.00788
11,POLR1A C733 (UniProt O95602),-0.0772
12,POLD1 C428 (UniProt P28340),0.104
13,PHKB C76 (UniProt Q93100),0.207
14,POLR1A C937 (UniProt O95602),-0.264
15,PIGA C348 (UniProt P37287),0.358
16,PKN1 C602 (UniProt Q16512),-0.561
17,PIK3R2 C50 (UniProt O00459),0.25
18,PITX1 C77 (UniProt P78337),0.2

# Reference: the supplement of paper PMC11732987, “Enantioselective OTUD7B fragment discovery through chemoproteomics screening and high-throughput optimisation” (Communications Chemistry, 2025)
